The target in the assay is BirA–p53β fusion protein (human) (UniProt P04637). Kind of assay: proximity labelling; BioID: MCF-7 transiently transfected with pCMV-BirA-p53FL or pCMV-BirA-p53β, biotin overnight, lysates on streptavidin beads, biotinylated proteins identified by MS; hits validated by immunoblot (Figure 4). On the technique in general: A western blot detects proteins with antibodies after separation by electrophoresis.

We go through one molecule from publication PMC7827558.

These are yes or no findings as the source states them, for the method shown. Binding seen in cells or lysates may run through a third protein. These calls come from enrichment with a bait or labelling near it, and not all partners need be listed.

B1: CARF (protein, UniProt Q9NXV6 1-580)
chain: MAQEVSEYLSQNPRVAAWVEALRCDGETDKHWRHRRDFLLRNAGDLAPAGGAASASTDEAADAESGTRNRQLQQLISFSMAWANHVFLGCRYPQKVMDKILSMAEGIKVTDAPTYTTRDELVAKVKKRGISSSNEGVEEPSKKRVIEGKNSSAVEQDHAKTSAKTERASAQQENSSTCIGSAIKSESGNSARSSGISSQNSSTSDGDRSVSSQSSSSVSSQVTTAGSGKASEAEAPDKHGSASFVSLLKSSVNSHMTQSTDSRQQSGSPKKSALEGSSASASQSSSEIEVPLLGSSGSSEVELPLLSSKPSSETASSGLTSKTSSEASVSSSVAKNSSSSGTSLLTPKSSSSTNTSLLTSKSTSQVAASLLASKSSSQTSGSLVSKSTSLASVSQLASKSSSQTSTSQLPSKSTSQSSESSVKFSCKLTNEDVKQKQPFFNRLYKTVAWKLVAVGGFSPNVNHGELLNAAIEALKATLDVFFVPLKELADLPQNKSSQESIVCELRCKSVYLGTGCGKSKENAKAVASREALKLFLKKKVVVKICKRKYRGSEIEDLVLLDEESRPVNLPPALKHPQELL
Consider B1, for which the binding result is on record as “binds”.
